These are yes or no findings as the source states them, for the method shown. For some assays here: Binding seen in cells or lysates may run through a third protein. Some binding calls cover weakened binding; strength is not graded here. For some assays here: Sequences can lack the tags named with a protein. Blank lines part the entries; values can stand above or below the molecule they belong to.
Legend:
[1] = molecular target: T1, N-EYFP::VeA (Aspergillus nidulans) (UniProt C8VTV4); test: split reporter; split-EYFP (BIFC) in living A. nidulans hyphae, fluorescence microscopy; nuclei marked by H2A::mRFP or DAPI; wild type and laeAΔ strains, light or dark
T1 sequence: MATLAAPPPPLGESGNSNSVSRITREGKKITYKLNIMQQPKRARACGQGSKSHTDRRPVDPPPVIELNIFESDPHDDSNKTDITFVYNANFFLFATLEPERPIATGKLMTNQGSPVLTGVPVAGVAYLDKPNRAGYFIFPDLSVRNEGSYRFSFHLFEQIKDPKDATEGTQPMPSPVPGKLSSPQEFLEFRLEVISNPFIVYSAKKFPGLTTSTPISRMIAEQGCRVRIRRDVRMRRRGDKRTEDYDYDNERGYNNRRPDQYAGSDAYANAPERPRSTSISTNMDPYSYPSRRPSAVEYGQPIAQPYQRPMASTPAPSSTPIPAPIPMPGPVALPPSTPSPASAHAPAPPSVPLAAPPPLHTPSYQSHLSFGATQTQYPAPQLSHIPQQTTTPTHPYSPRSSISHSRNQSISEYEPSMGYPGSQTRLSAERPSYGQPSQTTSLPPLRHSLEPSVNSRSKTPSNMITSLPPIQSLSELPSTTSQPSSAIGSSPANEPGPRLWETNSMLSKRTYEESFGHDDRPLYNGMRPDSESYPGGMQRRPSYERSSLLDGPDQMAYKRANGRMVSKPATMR

The chains behind the UniProt entries cited, without tags or fusion partners.
UniProt C8VTS4: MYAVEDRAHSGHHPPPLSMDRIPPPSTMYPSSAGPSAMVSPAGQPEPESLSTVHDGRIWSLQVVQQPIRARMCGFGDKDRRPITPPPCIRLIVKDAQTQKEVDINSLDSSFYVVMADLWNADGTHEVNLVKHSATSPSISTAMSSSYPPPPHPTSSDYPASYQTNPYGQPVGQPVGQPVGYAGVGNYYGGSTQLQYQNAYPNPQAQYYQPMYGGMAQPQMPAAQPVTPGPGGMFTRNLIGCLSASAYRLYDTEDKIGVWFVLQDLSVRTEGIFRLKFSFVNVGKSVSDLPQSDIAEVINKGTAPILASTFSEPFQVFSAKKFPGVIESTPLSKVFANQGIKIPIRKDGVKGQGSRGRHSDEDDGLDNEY

[2] = molecular target: T2, N-EYFP::VosA (Aspergillus nidulans) (UniProt Q5BBX1); test: as above
T2 sequence: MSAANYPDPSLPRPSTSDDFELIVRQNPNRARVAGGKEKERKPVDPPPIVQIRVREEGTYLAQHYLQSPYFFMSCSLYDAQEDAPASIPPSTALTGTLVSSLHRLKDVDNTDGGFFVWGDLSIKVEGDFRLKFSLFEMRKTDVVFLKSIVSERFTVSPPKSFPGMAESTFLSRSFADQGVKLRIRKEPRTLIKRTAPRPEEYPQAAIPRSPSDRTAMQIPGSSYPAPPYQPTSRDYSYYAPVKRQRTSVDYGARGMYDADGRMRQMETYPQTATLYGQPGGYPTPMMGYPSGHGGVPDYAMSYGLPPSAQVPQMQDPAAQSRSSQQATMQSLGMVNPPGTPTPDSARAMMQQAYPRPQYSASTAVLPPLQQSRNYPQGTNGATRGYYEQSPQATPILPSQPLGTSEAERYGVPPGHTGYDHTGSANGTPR

[3] = molecular target: C-EYFP::VelB (Aspergillus nidulans) (UniProt C8VTS4); test: as above
[4] = molecular target: T3, VosA (yeast two hybrid screen and GST pull-down, unpublished data) (Aspergillus nidulans) (UniProt Q5BBX1); test: two-hybrid; yeast two hybrid screen; unpublished data (Ni et al)
T3 sequence: T2 sequence

[5] = molecular target: T3, VosA (yeast two hybrid screen and GST pull-down, unpublished data) (Aspergillus nidulans); test: pull-down; GST pull-down assay following the two hybrid screen; unpublished data (Ni et al)

- binding [1]: binds
- binding [2]: binds
- binding [3]: binds
Molecule: C-EYFP::VelB (from UniProt C8VTS4 1-369)

- binding [4]: binds
- binding [5]: binds
B1: VelC (protein, UniProt Q5BBM1 1-524)
chain: MTTHVGPQTTLLHQTGQISALIAGEAVQTCEASSCQMSGTPFQQWTYVTEGRYTNARTHPSDEDRRRQTTVSNPRYLAQEPPRFLLPTAQNNAPTMSQSATYSTLPVQGFPEQNRVLDNRSDPKYGPLPATTGSLAQYSIQRPSTSRNMENAGSSSSYYDAPSCSRGSVGSIGRMNDLDSQYSGSTTAFPSPVHSDSSPIYPAIAPISGYQQQLPIHQRHTTSSMPSGFENLLHHHSTSPSPPPRCASSSSRYRLFIRQQPLAARACGAGDRDRRPVDPPPIIQLLLTEFNPNSEKDRSILQDPRFTVGCLLYPVRNPSYLPGSGSGAGSSDTNTNSNDKSRHESMSSYSQLGINLEDSHATGQSTPLLSGKAFVSPFFVDEEPDPNTAPAHPSSTDDSTYDASPRTVTHRFRNRPLPKPPACFFIFSDLSVRTAGLYRLQFRLMNWGSIEDTGQSMPILAEVWSEPFRVCAAKDFPGMRDSSLLTLRLKELGFVELKTRGQGMGKGRRVGIGSSKVSSRARVE

From article PMC2996326, “LaeA Control of Velvet Family Regulatory Proteins for Light-Dependent Development and Fungal Cell-Type Specificity” (PLoS Genetics, 2010)
